Source: publication PMC9103898

Target: T1, Nod26-like major intrinsic protein (NIP) encoded by the low silicon gene 1 (Lsi1), in Lsi1-overexpressing Dular rice leaves (rice (Oryza sativa)) (UniProt Q6Z2T3)
T1 sequence: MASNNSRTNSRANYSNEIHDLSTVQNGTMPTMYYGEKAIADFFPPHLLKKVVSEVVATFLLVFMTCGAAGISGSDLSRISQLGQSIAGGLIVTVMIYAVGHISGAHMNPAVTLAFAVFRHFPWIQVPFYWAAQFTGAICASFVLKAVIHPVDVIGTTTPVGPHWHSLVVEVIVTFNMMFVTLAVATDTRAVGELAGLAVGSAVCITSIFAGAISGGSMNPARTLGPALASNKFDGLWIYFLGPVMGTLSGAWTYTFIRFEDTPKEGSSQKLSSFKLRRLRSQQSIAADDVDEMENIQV
Assay: affinity purification with mass spectrometry; crude non-denatured leaf extract of rice treated at low temperature for 48 h, antibodies (200:1) overnight at 4 °C, protein A/G agarose, SDS-PAGE and LC-MS/MS

binding: binds
B1: 14-3-3f protein, in rice leaf extract (protein, UniProt Q06967 1-260)
chain: MSPAEASREENVYMAKLAEQAERYEEMVEFMEKVAKTTDVGELTVEERNLLSVAYKNVIGARRASWRIISSIEQKEESRGNEAYVASIKEYRSRIETELSKICDGILKLLDSHLVPSATAAESKVFYLKMKGDYHRYLAEFKSGAERKEAAENTLVAYKSAQDIALADLPTTHPIRLGLALNFSVFYYEILNSPDRACNLAKQAFDDAIAELDTLGEESYKDSTLIMQLLRDNLTLWTSDNAEDGGDEIKEAAKPEGEGH

No constants are given. Whether binding was seen depends on the method and setting. In cells and extracts the contact can be indirect. A yes stands for co-enrichment or nearness to the bait. Other partners may have been found.
